# The campaign covered roughly 300,000 compounds. About 5,400 (1.8%) were called active. Inconclusive means that the source gave no clear call. Such entries were picked first, then a sample of the others. Calls come from the whole dose curve; tested in HEK293 cells. Where the call is inconclusive, the potency comes from a doubtful curve fit.
# Assay: qHTS for inhibitors of binding or entry into cells for Marburg Virus
# Conditions: Marburg virus pseudotyped entry inhibition, cell reporter; activity change, negative = inhibition: at 37.8 µM (top of the series) unless noted
# % is set by controls: 0 for no effect and ±100 for the full control effect; potency is the fitted concentration of half-maximal effect.
SMILES,Potency,"activity change, negative = inhibition"
COc1ccc(-c2cc(C(=O)N(C)CC(=O)Nc3cccc(F)c3)c3ccccc3n2)cc1,"inconclusive: 22.4 µM [inhibitor, single point]",–
O=C(Nc1cccc2ncccc12)c1ccc(Cl)cc1,–,inactive: -0.0685% [at 46.1 µM]
CCN(CC(=O)Nc1cc(Cl)ccc1C)C(=O)CC1CCCC1,"inconclusive: 2.51 µM [inhibitor, single point]",–
COc1ccc(NC(=S)N(CCc2c(C)[nH]c3ccc(C)cc23)Cc2cccs2)cc1,"inconclusive: 14.6 µM [inhibitor, single point]",–
Clc1ccc(-c2nc3cnccn3c2NC2CCCC2)cc1,"inconclusive: 23.1 µM [inhibitor, partial curve]",–
CN1CCN(C2=C(Cl)C(=O)N(c3ccc(Cl)c(Cl)c3)C2=O)CC1,"inconclusive: 5.8 µM [inhibitor, full curve, poor fit]",–
N=c1ccn(Cc2ccc(Cl)cc2)cc1,"inconclusive: 11.2 µM [inhibitor, partial curve, poor fit]",–
O=C(COC(=O)c1ccc(O)cc1)NCC1COc2ccccc2O1 (stereo unspecified),–,inactive: 16.2%
Cc1ccc2c(c1)c(=O)c(Br)c(C)n2Cc1ccccc1,–,inactive: -0.511%
C=CCNc1nc(NC(C)(C)CO)nc(OCC)n1,–,inactive: 9.4%
O=C(N/N=C\c1ccc(Cl)s1)c1ccc(Cn2cccn2)o1,–,inactive: 7.88%
CCn1nc(NS(=O)(=O)c2ccc(NC(C)=O)cc2)c2cc3cc(C)ccc3nc21,"inconclusive: 17.8 µM [activator, single point]",–
O=c1c2ccccc2nc(-c2ccc(Cl)cc2)n1CCCOc1ccccc1F,–,inactive: 13.8% [at 46.1 µM]
O=C(NCCc1ccc(Cl)cc1)C1CCN(C(=O)c2sccc2-n2cccc2)CC1,"inconclusive: 35.5 µM [inhibitor, single point]",–
O=C(Nc1ccccn1)c1onc2c1CCCC2,"inconclusive: 1.78 µM [inhibitor, full curve, poor fit]",–
Cc1nc(C#N)c(NCc2ccc3c(c2)OCO3)o1,"inconclusive: 35.5 µM [activator, single point]",–
NC(N)=NN=C1CCCCCCCCCCC1,"inconclusive: 17.8 µM [inhibitor, partial curve, poor fit]",–
COc1cc(Nc2c3c(nc4ccccc24)CCCC3)cc(OC)c1OC,active: 4.47 µM,–
Nc1c(C(=O)Nc2ccc3c(c2)OCCO3)nnn1Cc1ccc(Cl)cc1,–,inactive: 9.36%
CCC(C(=O)N1CCN(C(=O)c2ccco2)CC1)c1ccccc1 (stereo unspecified),–,inactive: 3.42%
CCCn1c(=O)c2[nH]c(C3CCCC3)nc2n(CCCOC(=O)c2ccc(S(=O)(=O)F)cc2)c1=O,"inconclusive: 8.91 µM [inhibitor, partial curve]",–
Cc1ccc2c(c1)Oc1ccc(NC(=O)CCl)cc1C(=O)N2,"inconclusive: 1.41 µM [inhibitor, full curve, poor fit]",–
O=C(Nc1cccc(-c2cn3ccccc3n2)c1)c1ccccc1,"inconclusive: 35.5 µM [inhibitor, single point]",–
O=C(Nc1ccc(-c2nc3ccccc3[nH]2)cc1)c1ccc2c(c1)OCO2,"inconclusive: 29.1 µM [inhibitor, single point]",–

SMILES,Potency,"activity change, negative = inhibition"
Cc1cc(Nc2ccc3c(c2)OCCO3)c2cccc(C)c2n1,"inconclusive: 0.501 µM [activator, partial curve, poor fit]",–
O=C(N[C@H](c1cccc(Br)c1)[C@@H]1CCCC=C1c1ccccc1)C(F)(F)F,–,inactive: -42.6% [at 14.2 µM]
Clc1ccc(-c2nc3n(n2)Cc2ccccc2-3)cc1,"inconclusive: 11.2 µM [inhibitor, single point]",–
COc1ccc(-c2cc(C(=O)Nc3cc(Cl)ccc3OC)no2)cc1,"inconclusive: 5.62 µM [activator, single point]",–
O=C(CCCOc1ccc(Cl)cc1Cl)N/N=C/c1ccccc1,"inconclusive: 1.41 µM [activator, partial curve]",–
Cc1c(C(=O)OCC(C)C)[nH]c2c1C(=O)CC(c1cccs1)C2 (stereo unspecified),"inconclusive: 0.708 µM [inhibitor, full curve, poor fit]",–
Cc1ccc2nc(/N=C(\N)NC(=O)NC3CCCCC3)nc(C)c2c1,active: 5.62 µM,–
CSc1ccccc1OCc1cc(C(=O)NCCN2CCCc3ccccc32)no1,"inconclusive: 11.2 µM [inhibitor, single point]",–
Cc1cc2nc(-c3ccc(SCc4ccc(C(=O)O)cc4)nc3)[nH]c2cc1C,active: 5.62 µM,–
COc1cccc(-c2nc(S(=O)(=O)c3ccccc3)c(N3CCC(C)CC3)o2)c1,–,inactive: -27.2% [at 46.1 µM]
CCS(=O)(=O)c1c(Nc2cc(C)ccc2C)sc(C(=O)c2ccccc2)c1N,"inconclusive: 20 µM [inhibitor, single point]",–
CC(C)Cc1ccc(CN2CCCC(NC(=O)c3ccnn3C)C2)cc1 (stereo unspecified),active: 10 µM,–
O=C(Oc1ccc(Oc2ccccc2)cc1)N1CCC(O)CC1,–,inactive: -2.24%
COc1cn(-c2ccccc2)nc1C(=O)Nc1ccccc1,"inconclusive: 14.1 µM [activator, partial curve, poor fit]",–
CC1CN(C(=S)SCC(=O)c2ccc(Cl)cc2)CC(C)O1 (stereo unspecified),–,inactive: 1.31%
O=C(Nc1nc(COc2ccccc2)cs1)c1ccccc1F,"inconclusive: 14.1 µM [inhibitor, single point]",–
Nc1nc(C2CC2)c(Sc2sc(N)nc2C2CC2)s1,"inconclusive: 2.24 µM [inhibitor, full curve, poor fit]",–
Cn1c(=O)n(CC(=O)OCc2ccccc2)c(=O)c2c1nc1n2CCCN1C1CCCCC1,"inconclusive: 11.2 µM [inhibitor, partial curve, poor fit]",–
COc1ccccc1NCC(=O)c1ccc(Cl)cc1,–,inactive: 1.05% [at 46.1 µM]
Cc1cccc(-n2ncc3c2CCCC3NC(=O)CCN2Cc3ccccc3C2=O)c1C (stereo unspecified),"inconclusive: 35.5 µM [inhibitor, single point]",–
CNC(=O)CN(C1CCCCC1)S(=O)(=O)c1ccc(OC)c(Cl)c1,"inconclusive: 0.1 µM [activator, full curve, poor fit]",–
CCN1CCN(C(c2ccc(F)cc2)c2nnnn2Cc2ccc3c(c2)OCO3)CC1 (stereo unspecified),"inconclusive: 17.8 µM [inhibitor, single point]",–
Cc1cccc(-c2cccc(NC(=O)C3CCCN(Cc4cccnc4)C3)c2)c1 (stereo unspecified),"inconclusive: 35.5 µM [inhibitor, single point]",–
O=C(COc1ccc(Cl)cc1Cl)Nn1c(=S)[nH]c2ncccc2c1=O,–,inactive: 3.23%

SMILES,Potency,"activity change, negative = inhibition"
Cc1c(NC(=O)c2ccccc2NC(=O)c2ccccc2)cccc1C(=O)O,–,inactive: 0.0752%
Cc1cc(C)c2oc(-c3ccc(C)c(NC(=O)/C=C/c4ccco4)c3)nc2c1,–,inactive: 5.09% [at 46.1 µM]
CC(CCN1CCCCc2nc(C)c(C)cc21)=NO[C@@H](C)CN1CCCCc2nc(C)c(C)cc21,–,inactive: 5.57% [at 14.2 µM]
O=C(O)CN1CCN(Cc2cccc(Cl)c2)C1=O,"inconclusive: 5.62 µM [activator, single point]",–
COc1ccc(CNC(=O)c2cc3c(=O)n(C)c4ccccc4c3n2C)c(OC)c1,–,inactive: -18.7% [at 46.1 µM]
O=C(CCc1ccccc1)NC(c1cccs1)c1cc(Cl)c2cccnc2c1O (stereo unspecified),"inconclusive: 7.94 µM [inhibitor, partial curve, poor fit]",–
COc1cc2c(cc1OC)C1(CCCC1)CNC2C (stereo unspecified),"inconclusive: 18.3 µM [inhibitor, single point]",–
CSC(=NC#N)N1CCN(C(=NC#N)SC)CC1,"inconclusive: 35.5 µM [inhibitor, single point]",–
Cn1c(=O)c2c(nc(NCc3ccc4c(c3)OCO4)n2Cc2ccc(F)cc2)n(C)c1=O,"inconclusive: 29.1 µM [inhibitor, single point]",–
Cn1ccnc1C(=O)c1cc(SCC(=O)NCc2ccccc2)nc2ccccc12,"inconclusive: 35.5 µM [inhibitor, single point]",–
O=[N+]([O-])c1ccc(/C=N/n2cnc3ccccc32)s1,"inconclusive: 11.2 µM [inhibitor, partial curve, poor fit]",–
COC(=O)CCC/C=C1/SCC(NC(=O)c2ccccc2)C1=O (stereo unspecified),"inconclusive: 35.5 µM [inhibitor, single point]",–
O=c1c(-c2ccccc2)c(O)c2cccc3c2n1CCC3,"inconclusive: 0.794 µM [inhibitor, single point]",–
CCCCN(CCCC)C(=O)CSc1nnc2n(C)c(=O)c3c4c(sc3n12)CCCC4,"inconclusive: 0.316 µM [inhibitor, partial curve, poor fit]",–
COc1ccc(CCNC(=O)/C(C#N)=C/c2ccc(OCC(=O)NCC3CCCO3)cc2)cc1OC (stereo unspecified),–,inactive: -21.7% [at 14.2 µM]
Cc1ccc(-n2ncc(-c3nn[nH]n3)c2N)cc1,–,inactive: -21.3% [at 46.1 µM]
C=C(C)CSc1nc2c(cc1C#N)CCC2,–,inactive: 27.7%
Cc1no[n+]([O-])c1COc1ccccc1/C=N/n1nnnc1N,"inconclusive: 3.55 µM [inhibitor, full curve, poor fit]",–
Clc1ccc(CON/C=N/c2ncnc3sccc23)c(Cl)c1,"inconclusive: 11.2 µM [inhibitor, partial curve, poor fit]",–
Nc1ccc(C(=O)N2CCN(S(=O)(=O)c3ccc(Cl)cc3)CC2)cc1[N+](=O)[O-],"inconclusive: 11.2 µM [inhibitor, single point]",–
COc1ccc(-c2csc(-c3cccs3)n2)cc1OC,"inconclusive: 2.82 µM [activator, single point]",–
CCN1CCN(Cc2cccc(Oc3ccc(Cl)cc3)c2)CC1,"inconclusive: 23.1 µM [inhibitor, partial curve, poor fit]",–
O=C(Nc1ccccc1O)c1cccc(S(=O)(=O)N2CCOCC2)c1,–,inactive: 29% [at 46.1 µM]

# Entries of single compounds from above. Order of values: Potency	activity change, negative = inhibition
# O=c1c(-c2ccccc2)c(O)c2cccc3c2n1CCC3 as listed: inconclusive: 0.794 µM [inhibitor, single point]	–
# O=[N+]([O-])c1ccc(/C=N/n2cnc3ccccc32)s1 as listed: inconclusive: 11.2 µM [inhibitor, partial curve, poor fit]	–
# O=C(NCCc1ccc(Cl)cc1)C1CCN(C(=O)c2sccc2-n2cccc2)CC1 as listed: inconclusive: 35.5 µM [inhibitor, single point]	–
# CCN1CCN(C(c2ccc(F)cc2)c2nnnn2Cc2ccc3c(c2)OCO3)CC1 (stereo unspecified) as listed: inconclusive: 17.8 µM [inhibitor, single point]	–

# Source: PubChem BioAssay AID540276 (National Center for Advancing Translational Sciences (NCATS), 2011)
